± gives the standard deviation of the averaged measurements. Most values lie at the floor of the assay. Slopes are relative: functional sequences can read slightly below zero.

The subject of the data set is Saccharomyces cerevisiae PS128 hsf1 delta, HSF1(1-493) fusion. As to the kind of experiment: growth estimate (transactivation domain function in HSF1 fusion, heat-shock survival) (a.u. (slope of normalised read count over time)); higher = stronger growth at 37°C, i.e. more transactivation activity. Conditions: library: random library. The method, then:
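Random 60-nt DNA library encoding peptides of up to 20 aa, fused to the C-terminus of yeast HSF1 residues 1-493 (C-terminal TAD deleted) and expressed from the native HSF1 promoter on a CEN plasmid in hsf1-deleted S. cerevisiae PS128. Cells were selected at 37°C on -trp 5-FOA plates for 0, 2, 4, 6 and 8 days and amplicons were sequenced. Growth estimate is the slope of a robust linear fit of total-sum-normalised read counts (normalised to the first time point) over time, using at least 2 replicates. Sequences are classed functional (TAD activity) above a threshold of -0.13, set from stop-codon control sequences.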
WPYHSLEPSE: the growth estimate is less than -0.25.

YRQVVQ: the growth estimate is less than -0.25.

As for YETTCGRSRSRGSHNAVVSF, the growth estimate is less than -0.25.

FLYIGCFLRRTYKYAAEPEF: the growth estimate is less than -0.25.

For the substance MFSISMGDREISQSGDCLTR, the growth estimate was less than -0.25.

Turning to TDSKPRASENGDFVEGLNSQ, the growth estimate is less than -0.25.

On to SESVRRKDSYRVLFANAYDI, for which the growth estimate was less than -0.25.

For the substance LANRERSCSLWPLSSCNDDG, the growth estimate was less than -0.25.

For TELFDVRWEGYGTLIVRPCR, the growth estimate was less than -0.25.

For RKLPPWNVLLTPSLRMCFVH, the growth estimate was less than -0.25.

For YTSEFPNPSH, the growth estimate is less than -0.25.

With VTSIK, the growth estimate is less than -0.25.

For QSTIRMQLSVIRGE, the growth estimate was less than -0.25.

Turning to GEVSSAPTGGSSEDHDMYES, the growth estimate is less than -0.25.

For QGAATV, the growth estimate was less than -0.25.

TEAEGRPKLMRPTCPIRASR: the growth estimate is less than -0.25.

With FDVTL, the growth estimate was -0.0423.

Regarding TGNQECTRA, the growth estimate is less than -0.25.

Regarding RIRADGNVGTKYNLTGNGFH, the growth estimate was less than -0.25.

Consider EGNTWCV, for which the growth estimate is less than -0.25.

Turning to LNPLRESGSSRYPLTTDTD, the growth estimate was less than -0.25.

Consider TLLRMYTCEFFAAATRG, for which the growth estimate is less than -0.25.

Take SRVPGC: the growth estimate is less than -0.25.

Turning to LVVGPPI, the growth estimate was less than -0.25.

Take LALWRGGRRISTRMTYCMSL: the growth estimate was less than -0.25.

With ATFFKTRGQYSVGSVGHAEV, the growth estimate was -0.231.

Take DRQRASCFITRKGLPQG: the growth estimate is less than -0.25.

As for SRGGNN, the growth estimate is less than -0.25.

For NARGFNYRGGARLPYKRVCS, the growth estimate is less than -0.25.

As to SGVLMIVFVYTRVAVGRGCP, the growth estimate was less than -0.25.

Consider VRAMGHQRGEISTLRLAQSL, for which the growth estimate is less than -0.25.

As for RLNRYLQLYMKREFYYRASA, the growth estimate was less than -0.25.

On to EPPVRCSVTRKTCRTLHTLQ, for which the growth estimate was less than -0.25.

Turning to RGARLLGHR, the growth estimate was less than -0.25.

In the case of AEF, the growth estimate is less than -0.25.

With YEIVQFFH, the growth estimate was less than -0.25.

SNRQGERKAKAPSSVFIVYW: the growth estimate is less than -0.25.

For GTFK, the growth estimate is less than -0.25.

As to RVPQICVARLLRCNIHRSA, the growth estimate is less than -0.25.

As to LSARPARAGGRRLIDENPTS, the growth estimate was less than -0.25.

For the substance PVKVFRDSPEIKASSIMSDC, the growth estimate was less than -0.25.

As for LTAATRLPMCSCVCCGPGTT, the growth estimate was less than -0.25.

Turning to KRTVTFCPGQTKAHGVSRFA, the growth estimate is less than -0.25.

Regarding VIQV, the growth estimate was less than -0.25.

For the substance RNCLPRNSIGWSVMTAVLGR, the growth estimate was less than -0.25.

Regarding LSSAE, the growth estimate is less than -0.25.

Turning to SQGHVSVRLAGYERTDCPRG, the growth estimate was less than -0.25.

For the substance KVYSEVVLVHLDLMWISGAA, the growth estimate is less than -0.25.

In the case of LPIRKIEAGSRGVTGGTVNR, the growth estimate was less than -0.25.

As to ERSSVRCGIVLATSQPTHMA, the growth estimate was less than -0.25.

As to SFRVGRGLCRVLAALGTEHR, the growth estimate was less than -0.25.

Regarding TGNGLPRDFDPD, the growth estimate is less than -0.25.

With YRVRLPHCSVVSNSDSLIRP, the growth estimate was less than -0.25.

In the case of FLLSPTTGDVPLGRNDSLAY, the growth estimate is -0.125.

RGTPHIFMQSKVSNDPEDDL: the growth estimate was less than -0.25.

For the substance NPGQ, the growth estimate was less than -0.25.

LMFIV: the growth estimate is less than -0.25.

Regarding HRFKA, the growth estimate is less than -0.25.

As for GGSRLHVRRFYLTPQLGRIP, the growth estimate is -0.248.

As for KSLGRGEFRS, the growth estimate is less than -0.25.

Turning to LRKVEIYGLARLRQHAVTWW, the growth estimate is less than -0.25.

For RIPRPLGKLMDDRKR, the growth estimate was less than -0.25.

As to EFGIFNRQSPNPG, the growth estimate was less than -0.25.

For SSAMLYGNVWLSVLRGPTYQ, the growth estimate is -0.172.

For ITSAKGP, the growth estimate is less than -0.25.

Regarding RARGHTSSSL, the growth estimate was less than -0.25.

Consider GVEMAT, for which the growth estimate was less than -0.25.

As for FAPMGLSGVEDEFLPCQV, the growth estimate is -0.235.

PSQAKKCVP: the growth estimate was less than -0.25.

LWAPFH: the growth estimate is less than -0.25.

Take IQWNQPLPQEQHCGSLCL: the growth estimate is less than -0.25.

GKLRRPDRKGKCHRGNGGCS: the growth estimate was less than -0.25.

Consider TTGGVVGRNKSIAPSWCAKS, for which the growth estimate is less than -0.25.

As to LRG, the growth estimate is -0.24 ± 0.013.

On to RFRRREALRTHQRIDVFSQN, for which the growth estimate is less than -0.25.

Consider LPP, for which the growth estimate is less than -0.25.

With GPSITIGKQQDL, the growth estimate is less than -0.25.

For the substance RMLGDYSVGAAL, the growth estimate was less than -0.25.

Consider GGYQDYENVM, for which the growth estimate is less than -0.25.

With WGTFEAIGERSDLELTSDQR, the growth estimate was less than -0.25.

On to RGRAHGRHPLRYALICQGAM, for which the growth estimate is less than -0.25.

Consider CENLSLPAS, for which the growth estimate is less than -0.25.

VTAETQVSRNKGVTYDDRPF: the growth estimate was less than -0.25.

As for KQRGHFLSRSSLIVARRRWF, the growth estimate is less than -0.25.

Turning to AAEQESSWKG, the growth estimate was less than -0.25.

As for CVSDAG, the growth estimate was less than -0.25.

EGVRNC: the growth estimate was -0.231.

Turning to SGHLIAL, the growth estimate was less than -0.25.

For HMRINTHQAVDISCEVNCWV, the growth estimate was less than -0.25.

Take EAWQLRGHP: the growth estimate was less than -0.25.

As for NRCKSRQQVGVRWRVMSFIA, the growth estimate is less than -0.25.

Consider ACIVLME, for which the growth estimate is less than -0.25.

Regarding LCWL, the growth estimate is less than -0.25.

On to CTPGGCGHHFYPSFHRRPLP, for which the growth estimate was less than -0.25.

On to EIMGGGSK, for which the growth estimate is less than -0.25.

With AAKKPPM, the growth estimate was less than -0.25.

In the case of LQVR, the growth estimate was less than -0.25.

Take CQFRPVVKNVECGNQPNCSP: the growth estimate is less than -0.25.

Take GASFQTHKPGCNPATKIQRT: the growth estimate was less than -0.25.

For the substance RMTRSIFVQVDGEF, the growth estimate was less than -0.25.

In the case of RPFGISGIAILVTVVVGSHD, the growth estimate is less than -0.25.

Consider LGVLLEDSIRDLIPC, for which the growth estimate is less than -0.25.

As for PARPYVGVTLDQCAV, the growth estimate is less than -0.25.

As to GSLTFEGLGYIRIGFILEHN, the growth estimate is less than -0.25.

For CFNSRRSWVEKHYIGAGATR, the growth estimate was less than -0.25.

Regarding KYFGTGGSPWHT, the growth estimate was -0.246.

For TQGIPLHAASVLKLEPLPVV, the growth estimate is less than -0.25.

For CQGSIIVSYVYVFGLARGP, the growth estimate is less than -0.25.

For RISLREL, the growth estimate is less than -0.25.

As to CRQY, the growth estimate was less than -0.25.

For the substance PRRPGYPASSKAKKQTANCT, the growth estimate was less than -0.25.

As to LMSKR, the growth estimate was less than -0.25.

On to GWYQSCVITGDTGACVTLLR, for which the growth estimate was less than -0.25.

As to VAHLPCGLSVAVMRGLLNIV, the growth estimate was less than -0.25.

IICVQRRIYPVLGVPGTQCL: the growth estimate was less than -0.25.

For YPCYTEIAESESLPQLWPA, the growth estimate is less than -0.25.
